Results taken from the supplement of paper PMC10849652.
The list shows a part of the results.

By UniProt entry, the sequences of proteins in these tests, tags left out. Where a name states a change or a piece, a line headed by the entry shows the natural chain unless it says otherwise.
UniProt Q9BU23: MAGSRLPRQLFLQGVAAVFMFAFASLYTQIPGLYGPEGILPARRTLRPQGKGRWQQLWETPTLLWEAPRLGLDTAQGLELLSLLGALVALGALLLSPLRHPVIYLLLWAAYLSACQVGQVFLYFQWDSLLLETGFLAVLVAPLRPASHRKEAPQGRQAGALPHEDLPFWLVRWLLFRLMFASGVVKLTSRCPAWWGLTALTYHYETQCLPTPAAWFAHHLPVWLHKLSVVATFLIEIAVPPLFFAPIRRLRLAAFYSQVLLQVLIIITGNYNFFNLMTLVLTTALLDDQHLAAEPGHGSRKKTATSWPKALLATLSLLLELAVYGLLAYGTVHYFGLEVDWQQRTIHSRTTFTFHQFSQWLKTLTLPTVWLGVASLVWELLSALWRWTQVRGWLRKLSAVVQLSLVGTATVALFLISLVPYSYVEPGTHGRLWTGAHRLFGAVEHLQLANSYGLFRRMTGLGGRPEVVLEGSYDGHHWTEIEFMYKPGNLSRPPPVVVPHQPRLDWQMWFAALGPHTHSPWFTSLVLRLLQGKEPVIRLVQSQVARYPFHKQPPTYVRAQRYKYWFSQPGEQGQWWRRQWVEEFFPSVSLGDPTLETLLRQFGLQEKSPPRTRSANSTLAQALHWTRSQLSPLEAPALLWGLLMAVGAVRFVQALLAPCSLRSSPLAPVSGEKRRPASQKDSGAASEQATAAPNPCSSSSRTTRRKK
UniProt Q15345: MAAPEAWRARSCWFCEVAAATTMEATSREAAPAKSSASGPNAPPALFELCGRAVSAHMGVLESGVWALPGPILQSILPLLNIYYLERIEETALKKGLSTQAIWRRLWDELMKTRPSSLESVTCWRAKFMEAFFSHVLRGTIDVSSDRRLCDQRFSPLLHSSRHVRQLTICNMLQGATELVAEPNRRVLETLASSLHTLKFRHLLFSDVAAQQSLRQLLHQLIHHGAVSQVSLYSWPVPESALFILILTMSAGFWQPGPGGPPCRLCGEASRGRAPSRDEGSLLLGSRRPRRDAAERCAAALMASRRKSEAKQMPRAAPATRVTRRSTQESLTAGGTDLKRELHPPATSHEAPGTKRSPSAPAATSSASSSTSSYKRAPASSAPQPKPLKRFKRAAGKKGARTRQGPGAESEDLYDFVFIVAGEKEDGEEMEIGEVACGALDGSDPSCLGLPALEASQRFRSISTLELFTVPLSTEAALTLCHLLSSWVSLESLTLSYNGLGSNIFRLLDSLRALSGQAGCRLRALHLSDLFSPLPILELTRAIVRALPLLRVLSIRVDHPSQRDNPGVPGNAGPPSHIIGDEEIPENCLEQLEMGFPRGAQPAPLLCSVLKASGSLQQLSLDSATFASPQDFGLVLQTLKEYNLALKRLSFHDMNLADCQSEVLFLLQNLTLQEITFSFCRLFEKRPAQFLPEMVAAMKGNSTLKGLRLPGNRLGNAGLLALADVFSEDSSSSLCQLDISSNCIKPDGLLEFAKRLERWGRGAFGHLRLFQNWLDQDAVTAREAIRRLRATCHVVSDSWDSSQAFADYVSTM
UniProt Q9C099: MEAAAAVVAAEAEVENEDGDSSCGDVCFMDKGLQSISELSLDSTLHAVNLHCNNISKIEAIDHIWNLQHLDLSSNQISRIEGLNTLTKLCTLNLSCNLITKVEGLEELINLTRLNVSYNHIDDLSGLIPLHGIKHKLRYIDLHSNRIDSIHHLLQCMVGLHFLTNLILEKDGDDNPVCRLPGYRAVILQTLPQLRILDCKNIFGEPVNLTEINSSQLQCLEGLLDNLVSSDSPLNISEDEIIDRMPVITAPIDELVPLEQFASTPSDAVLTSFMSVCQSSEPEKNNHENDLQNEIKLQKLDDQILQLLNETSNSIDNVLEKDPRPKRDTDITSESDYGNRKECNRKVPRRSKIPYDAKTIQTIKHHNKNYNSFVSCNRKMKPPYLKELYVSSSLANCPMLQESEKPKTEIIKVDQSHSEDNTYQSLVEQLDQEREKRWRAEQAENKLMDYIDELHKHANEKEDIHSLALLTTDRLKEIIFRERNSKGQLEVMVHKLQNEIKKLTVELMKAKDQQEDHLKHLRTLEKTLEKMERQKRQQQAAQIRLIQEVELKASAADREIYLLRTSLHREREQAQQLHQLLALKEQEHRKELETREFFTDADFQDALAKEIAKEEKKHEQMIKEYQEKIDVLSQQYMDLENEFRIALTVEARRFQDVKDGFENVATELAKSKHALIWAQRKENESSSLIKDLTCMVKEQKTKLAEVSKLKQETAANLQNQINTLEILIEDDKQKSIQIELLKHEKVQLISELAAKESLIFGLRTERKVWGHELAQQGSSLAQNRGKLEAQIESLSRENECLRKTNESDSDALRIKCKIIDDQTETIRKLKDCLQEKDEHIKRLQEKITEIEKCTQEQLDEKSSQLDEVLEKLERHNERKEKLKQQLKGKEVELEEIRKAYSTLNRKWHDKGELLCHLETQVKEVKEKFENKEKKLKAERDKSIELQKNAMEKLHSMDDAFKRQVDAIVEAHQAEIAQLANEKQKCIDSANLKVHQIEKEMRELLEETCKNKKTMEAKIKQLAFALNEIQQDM
UniProt Q92539: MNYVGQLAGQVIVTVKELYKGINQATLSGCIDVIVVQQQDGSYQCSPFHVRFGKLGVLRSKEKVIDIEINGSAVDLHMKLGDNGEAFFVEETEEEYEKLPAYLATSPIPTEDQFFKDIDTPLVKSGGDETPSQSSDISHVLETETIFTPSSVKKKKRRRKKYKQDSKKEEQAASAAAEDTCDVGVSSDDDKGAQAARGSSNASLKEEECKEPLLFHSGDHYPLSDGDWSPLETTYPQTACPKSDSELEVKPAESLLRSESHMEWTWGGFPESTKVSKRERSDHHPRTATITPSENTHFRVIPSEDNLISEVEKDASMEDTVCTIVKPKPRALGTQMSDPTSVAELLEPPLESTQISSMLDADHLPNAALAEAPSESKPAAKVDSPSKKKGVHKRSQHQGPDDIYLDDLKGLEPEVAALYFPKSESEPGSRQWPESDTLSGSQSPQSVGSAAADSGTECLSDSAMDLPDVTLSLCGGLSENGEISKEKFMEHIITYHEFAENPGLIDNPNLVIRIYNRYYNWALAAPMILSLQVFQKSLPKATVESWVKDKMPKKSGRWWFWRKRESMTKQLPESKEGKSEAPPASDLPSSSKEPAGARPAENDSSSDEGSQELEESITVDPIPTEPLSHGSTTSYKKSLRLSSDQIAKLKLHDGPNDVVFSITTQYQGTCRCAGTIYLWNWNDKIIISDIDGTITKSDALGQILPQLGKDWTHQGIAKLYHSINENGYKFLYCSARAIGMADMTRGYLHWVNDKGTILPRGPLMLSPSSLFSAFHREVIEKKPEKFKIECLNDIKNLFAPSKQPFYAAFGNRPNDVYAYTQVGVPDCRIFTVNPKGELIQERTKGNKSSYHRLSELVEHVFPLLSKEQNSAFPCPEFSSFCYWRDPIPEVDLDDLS
UniProt Q9UIC8: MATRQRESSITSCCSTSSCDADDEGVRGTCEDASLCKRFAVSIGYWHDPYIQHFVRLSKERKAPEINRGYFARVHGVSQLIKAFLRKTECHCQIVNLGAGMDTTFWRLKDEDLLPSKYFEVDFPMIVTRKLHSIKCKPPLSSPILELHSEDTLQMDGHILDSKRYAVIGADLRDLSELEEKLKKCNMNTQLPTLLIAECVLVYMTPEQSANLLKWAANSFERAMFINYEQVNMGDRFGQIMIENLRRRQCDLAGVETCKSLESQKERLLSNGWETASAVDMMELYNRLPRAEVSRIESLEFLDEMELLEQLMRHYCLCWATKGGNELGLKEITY
UniProt Q3MHD2: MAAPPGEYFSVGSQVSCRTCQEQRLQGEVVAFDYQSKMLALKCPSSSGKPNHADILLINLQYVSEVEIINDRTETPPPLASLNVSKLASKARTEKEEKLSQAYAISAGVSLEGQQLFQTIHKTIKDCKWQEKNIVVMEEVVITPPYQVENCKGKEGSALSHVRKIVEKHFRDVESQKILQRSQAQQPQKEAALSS
UniProt Q9UK45: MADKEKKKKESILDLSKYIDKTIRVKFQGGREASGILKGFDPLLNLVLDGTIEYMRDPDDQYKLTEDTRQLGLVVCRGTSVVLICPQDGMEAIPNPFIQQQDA
UniProt Q8N448: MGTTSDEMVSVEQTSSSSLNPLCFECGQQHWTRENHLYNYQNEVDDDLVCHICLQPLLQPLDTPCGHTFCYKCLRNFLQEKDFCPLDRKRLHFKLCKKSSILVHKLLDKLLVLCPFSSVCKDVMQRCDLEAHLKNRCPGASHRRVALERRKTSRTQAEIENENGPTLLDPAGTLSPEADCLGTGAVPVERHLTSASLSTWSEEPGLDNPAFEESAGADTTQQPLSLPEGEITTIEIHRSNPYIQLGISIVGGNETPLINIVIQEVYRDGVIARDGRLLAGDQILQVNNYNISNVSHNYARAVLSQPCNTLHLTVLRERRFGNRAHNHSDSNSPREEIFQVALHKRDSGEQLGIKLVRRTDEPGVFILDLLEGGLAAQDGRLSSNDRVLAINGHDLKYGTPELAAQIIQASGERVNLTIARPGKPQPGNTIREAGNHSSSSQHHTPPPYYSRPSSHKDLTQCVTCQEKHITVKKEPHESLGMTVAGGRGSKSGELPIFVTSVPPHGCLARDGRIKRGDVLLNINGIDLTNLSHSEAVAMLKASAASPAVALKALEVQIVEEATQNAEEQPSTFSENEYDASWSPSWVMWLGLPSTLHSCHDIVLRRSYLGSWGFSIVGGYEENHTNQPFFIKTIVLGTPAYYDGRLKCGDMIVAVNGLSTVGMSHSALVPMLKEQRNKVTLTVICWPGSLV
UniProt Q9NUP9: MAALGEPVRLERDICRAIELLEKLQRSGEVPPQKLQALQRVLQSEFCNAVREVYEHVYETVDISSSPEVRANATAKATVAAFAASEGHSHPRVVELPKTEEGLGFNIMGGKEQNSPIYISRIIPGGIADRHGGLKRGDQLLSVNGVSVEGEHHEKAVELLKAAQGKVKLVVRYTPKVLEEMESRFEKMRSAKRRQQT
UniProt Q6P1M3: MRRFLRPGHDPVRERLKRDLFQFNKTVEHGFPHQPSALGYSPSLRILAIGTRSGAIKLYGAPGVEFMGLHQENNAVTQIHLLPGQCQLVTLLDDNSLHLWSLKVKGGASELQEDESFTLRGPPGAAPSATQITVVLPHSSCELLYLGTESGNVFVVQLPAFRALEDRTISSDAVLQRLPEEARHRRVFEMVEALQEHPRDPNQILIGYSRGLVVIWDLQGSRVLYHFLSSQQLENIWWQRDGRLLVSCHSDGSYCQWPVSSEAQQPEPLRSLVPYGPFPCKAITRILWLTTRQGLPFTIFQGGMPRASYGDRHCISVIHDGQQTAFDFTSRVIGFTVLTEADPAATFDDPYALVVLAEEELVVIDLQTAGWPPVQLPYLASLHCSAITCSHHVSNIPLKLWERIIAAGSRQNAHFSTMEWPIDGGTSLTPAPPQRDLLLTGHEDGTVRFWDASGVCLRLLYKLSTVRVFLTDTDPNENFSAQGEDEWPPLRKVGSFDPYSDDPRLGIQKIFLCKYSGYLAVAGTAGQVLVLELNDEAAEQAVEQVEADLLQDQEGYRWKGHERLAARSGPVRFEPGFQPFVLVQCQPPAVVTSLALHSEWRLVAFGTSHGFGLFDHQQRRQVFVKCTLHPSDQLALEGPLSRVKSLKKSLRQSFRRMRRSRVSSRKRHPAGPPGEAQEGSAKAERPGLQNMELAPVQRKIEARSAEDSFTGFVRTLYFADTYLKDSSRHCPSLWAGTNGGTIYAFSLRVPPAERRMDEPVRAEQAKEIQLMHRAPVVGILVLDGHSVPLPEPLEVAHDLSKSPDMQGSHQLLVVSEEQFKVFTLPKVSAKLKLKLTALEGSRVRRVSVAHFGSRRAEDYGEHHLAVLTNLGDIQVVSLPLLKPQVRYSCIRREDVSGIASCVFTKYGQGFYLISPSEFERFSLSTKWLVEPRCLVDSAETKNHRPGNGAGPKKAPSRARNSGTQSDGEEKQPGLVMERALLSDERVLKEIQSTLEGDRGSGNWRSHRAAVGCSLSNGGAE
UniProt Q9Y4Y9: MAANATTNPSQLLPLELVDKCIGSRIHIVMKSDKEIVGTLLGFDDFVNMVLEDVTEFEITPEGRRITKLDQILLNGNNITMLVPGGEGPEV
UniProt Q6P1A2: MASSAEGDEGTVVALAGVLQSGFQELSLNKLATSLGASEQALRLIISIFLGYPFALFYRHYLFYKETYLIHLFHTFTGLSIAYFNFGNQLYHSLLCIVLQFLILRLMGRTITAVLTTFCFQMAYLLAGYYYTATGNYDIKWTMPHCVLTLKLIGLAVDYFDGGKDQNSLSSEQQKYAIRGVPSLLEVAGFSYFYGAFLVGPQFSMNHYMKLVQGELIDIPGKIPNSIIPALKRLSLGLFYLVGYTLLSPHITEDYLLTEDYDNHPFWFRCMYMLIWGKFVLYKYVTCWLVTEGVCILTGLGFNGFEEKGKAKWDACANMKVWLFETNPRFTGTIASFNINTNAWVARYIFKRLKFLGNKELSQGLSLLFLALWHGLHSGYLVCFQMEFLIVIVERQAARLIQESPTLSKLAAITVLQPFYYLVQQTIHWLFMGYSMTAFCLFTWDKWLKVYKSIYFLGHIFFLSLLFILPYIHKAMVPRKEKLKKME

Legend:
Test in all cases: log2 fold change, soluble protein after heating vs DMSO (PISA); higher = thermal stabilisation; K562 lysate, 10 uM; active = over 0.2 and 3.5 SD of the protein, either way, in both replicates (recomputed)
vemurafenib = compound: CCCS(=O)(=O)Nc1ccc(F)c(C(=O)c2c[nH]c3ncc(-c4ccc(Cl)cc4)cc23)c1F [vemurafenib]
Procedure, shortened: (§1)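 Pellets of K562 cells were dounce-homogenised in PBS pH 7.4 with 1 mM MgCl2, and the crude extract was held at 1 mg/mL protein for a 30 min treatment with 10 μM compound. Aliquots were heated for 3 min over 48°C-58°C and pooled before NP-40 was added to 0.5% at 4°C. The supernatant from 21,000xg for 90 min was quantified by TMTpro 16plex LC-MS/MS with channel sums equalised. Values are reported from duplicates as log-two fold change in thermal stability relative to solvent controls.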

[1] = compound: CCCS(=O)(=O)Nc1ccc(F)c(C(=O)c2c[nH]c3ncc(Cl)cc23)c1F
Procedure, shortened: as §1

barasertib = compound: CCN(CCCOc1ccc2c(Nc3cc(CC(=O)Nc4cccc(F)c4)[nH]n3)ncnc2c1)CCOP(=O)(O)O [barasertib]
Procedure, shortened: as §1

[2] = compound: CC[C@@H]1C(=O)N(C)c2cnc(Nc3ccc(C(=O)NC4CCN(C)CC4)cc3OC)nc2N1C1CCCC1
Procedure, shortened: as §1

volasertib = compound: CC[C@@H]1C(=O)N(C)c2cnc(Nc3ccc(C(=O)N[C@H]4CC[C@H](N5CCN(CC6CC6)CC5)CC4)cc3OC)nc2N1C(C)C [volasertib]
Procedure, shortened: as §1

[3] = compound: CCn1c(C(=O)N(C2CC2)C2CC2)cc2c3c(ncn3C)c(Nc3cc(C)n(C)n3)nc21
Procedure, shortened: as §1

[4] = compound: CCn1cc(-c2ccnc3[nH]c(-c4cccc(CN(C)C)c4)cc23)c(-c2ccc(NC(=O)N(C)C)cc2)n1
Procedure, shortened: as §1

[5] = compound: CN1CCC(CNc2ccc3ncc(-c4cccc(OC(F)(F)F)c4)n3n2)CC1
Procedure, shortened: as §1

saracatinib = compound: CN1CCN(CCOc2cc(OC3CCOCC3)c3c(Nc4c(Cl)ccc5c4OCO5)ncnc3c2)CC1 [saracatinib]
Procedure, shortened: as §1

sotrastaurin = compound: CN1CCN(c2nc(C3=C(c4c[nH]c5ccccc45)C(=O)NC3=O)c3ccccc3n2)CC1 [sotrastaurin]
Procedure, shortened: as §1

Measured: log2 fold change

LINS1 (UniProt Q8NG48)
inactive: vemurafenib -0.036 | [1] -0.095 | barasertib -0.182 | [2] 0.087 | volasertib -0.067 | [3] -0.052 | [4] 0.194 | [5] 0.052 | saracatinib -0.061 | sotrastaurin 0.085

LAS1L (UniProt Q9Y4W2)
inactive: vemurafenib -0.027 | [1] 0.007 | barasertib -0.003 | [2] -0.051 | volasertib -0.069 | [3] 0.009 | [4] -0.055 | [5] 0.099 | saracatinib -0.031 | sotrastaurin 0.049

LGALS3BP (UniProt Q08380)
inactive: vemurafenib -0.196 | [1] 0.01 | [2] 0.036 | volasertib 0.044 | [4] 0.168 | [5] 0 | saracatinib 0.219 | sotrastaurin -0.067

LRRC4B (UniProt Q9NT99)
inactive: vemurafenib 0.041 | [1] -0.008 | barasertib 0.034 | [2] 0.041 | volasertib -0.074 | [3] -0.106 | [4] 0.126 | [5] -0.033 | saracatinib 0.07 | sotrastaurin 0.052

LCN2 (UniProt P80188)
inactive: vemurafenib 0.13 | [1] -0.223 | volasertib -0.102

LMF2 (UniProt Q9BU23)
inactive: vemurafenib -0.039 | barasertib 0.078 | [2] -0.083 | [4] -0.196 | [5] 0.133 | saracatinib 0.046 | sotrastaurin -0.017

LRRC41 (UniProt Q15345)
inactive: vemurafenib 0.04 | [1] 0.176 | barasertib -0.033 | [2] -0.08 | volasertib 0.115 | [3] -0.036 | saracatinib 0.027 | sotrastaurin 0.105

LRP1 (UniProt Q07954)
inactive: vemurafenib 0.15 | [1] -0.072 | [2] -0.163 | volasertib 0.004 | sotrastaurin -0.043

LIAS (UniProt O43766)
inactive: vemurafenib 0.001 | [1] 0.027 | barasertib -0.027 | [2] -0.02 | volasertib 0.014 | [3] -0.035 | [4] -0.033 | [5] 0.072 | saracatinib -0.009 | sotrastaurin -0.021

LRP8 (UniProt Q14114)
inactive: vemurafenib 0.135 | [1] 0.175 | barasertib 0.099 | [2] 0.107 | volasertib -0.021 | [3] 0.012 | [4] -0.056 | [5] 0.006 | sotrastaurin 0.042

LRRCC1 (UniProt Q9C099)
inactive: vemurafenib 0.114 | [1] -0.02 | [2] 0.274 | volasertib 0.009 | [3] -0.239 | saracatinib -0.064 | sotrastaurin -0.04

LRRC42 (UniProt Q9Y546)
inactive: vemurafenib 0.016 | [2] -0.219 | [3] 0.001 | [4] 0.023 | [5] -0.151 | saracatinib 0.115 | sotrastaurin -0.082

LRIG2 (UniProt O94898)
inactive: vemurafenib 0.004 | [1] -0.001 | [2] 0.109 | volasertib -0.059 | [3] 0 | [4] -0.109 | [5] -0.014 | saracatinib 0.031 | sotrastaurin -0.011

LPIN2 (UniProt Q92539)
inactive: vemurafenib -0.061 | [1] 0.027 | barasertib 0 | [2] 0.045 | volasertib 0.008 | [3] 0.005 | [4] -0.002 | [5] -0.073 | saracatinib 0.057 | sotrastaurin 0.057

LCMT1 (UniProt Q9UIC8)
inactive: vemurafenib -0.054 | [1] -0.002 | barasertib -0.006 | [2] 0.026 | volasertib 0.003 | [3] -0.021 | [4] 0.065 | [5] -0.023 | saracatinib -0.017 | sotrastaurin -0.033

LRBA, A0A494BZW2
inactive: vemurafenib 0.068 | [1] 0.008 | barasertib 0.059 | [2] -0.026 | volasertib 0.062 | [3] -0.232 | [4] -0.034 | [5] 0.06 | saracatinib 0.068 | sotrastaurin 0.154

LMAN1 (UniProt P49257)
inactive: vemurafenib 0.009 | [1] -0.011 | barasertib -0.011 | [2] 0.055 | volasertib 0.008 | [3] 0.018 | [4] 0.107 | [5] -0.044 | saracatinib -0.01 | sotrastaurin 0.055

LIMD1 (UniProt Q9UGP4)
inactive: vemurafenib 0.003 | [1] 0.013 | barasertib -0.023 | [2] 0.021 | volasertib -0.01 | [3] 0.002 | [4] -0.005 | [5] 0.003 | saracatinib 0.038 | sotrastaurin -0.038

LSM12 (UniProt Q3MHD2)
inactive: vemurafenib 0.023 | [1] 0.02 | barasertib -0.002 | [2] 0.059 | volasertib -0.008 | [3] -0.019 | [4] -0.021 | [5] -0.013 | saracatinib 0.008 | sotrastaurin 0.036

LSM7 (UniProt Q9UK45)
inactive: vemurafenib 0.023 | [1] 0 | barasertib 0.071 | [2] 0.061 | volasertib 0.043 | [3] 0 | [4] -0.125 | [5] 0.009 | saracatinib -0.007 | sotrastaurin -0.027

LNX2 (UniProt Q8N448)
inactive: vemurafenib -0.061 | barasertib -0.153 | [2] 0.052 | [4] -0.04 | [5] 0.131 | saracatinib -0.177

LIN7C (UniProt Q9NUP9)
inactive: vemurafenib -0.027 | [1] -0.004 | barasertib 0.003 | [2] 0.005 | volasertib 0.009 | [3] 0.083 | [4] 0 | [5] 0.004 | saracatinib 0.005 | sotrastaurin 0.041

LRPPRC (UniProt P42704)
inactive: vemurafenib 0.032 | [1] 0.024 | barasertib 0.101 | [2] -0.141 | volasertib -0.072 | [3] 0.076 | [4] 0.033 | [5] -0.087 | saracatinib 0.045 | sotrastaurin 0.005

LRFN1 (UniProt Q9P244)
inactive: vemurafenib 0.035 | [1] 0.288 | barasertib -0.03 | [2] -0.115 | volasertib -0.18 | [3] 0.018 | saracatinib 0.013 | sotrastaurin 0.057

LLGL2 (UniProt Q6P1M3)
inactive: vemurafenib 0.03 | [1] 0.066 | [2] 0 | volasertib -0.016 | saracatinib 0.144 | sotrastaurin 0.059

LPCAT2 (UniProt Q7L5N7)
inactive: vemurafenib -0.081 | barasertib 0.024 | [2] 0 | saracatinib 0.138 | sotrastaurin 0.022

LDHC (UniProt P07864)
inactive: vemurafenib 0.026 | [1] -0.013 | barasertib 0.019 | [2] -0.016 | volasertib -0.052 | [3] 0.009 | saracatinib -0.004

LRRC8A (UniProt Q8IWT6)
inactive: vemurafenib 0.029 | [1] 0.003 | barasertib -0.017 | [2] 0.039 | volasertib -0.022 | [3] -0.003 | [4] 0.018 | [5] 0.021 | saracatinib -0.01 | sotrastaurin 0.001

Taken from the results shown (2 entries):
LRRC42 (UniProt Q9Y546)
inactive: vemurafenib 0.016 | [2] -0.219 | [3] 0.001 | [4] 0.023 | [5] -0.151 | saracatinib 0.115 | sotrastaurin -0.082

LRIG2 (UniProt O94898)
inactive: vemurafenib 0.004 | [1] -0.001 | [2] 0.109 | volasertib -0.059 | [3] 0 | [4] -0.109 | [5] -0.014 | saracatinib 0.031 | sotrastaurin -0.011

(continued)

LRRC8E (UniProt Q6NSJ5)
inactive: vemurafenib 0.045 | [2] 0.116 | [3] 0.026 | [4] -0.103 | [5] -0.094 | sotrastaurin -0.007

LSM5 (UniProt Q9Y4Y9)
inactive: vemurafenib 0.13 | [1] 0.017 | barasertib 0.019 | [2] 0.19 | volasertib -0.062 | [3] 0.037 | [4] 0.146 | [5] 0.027 | saracatinib 0.11 | sotrastaurin 0.076

LPCAT3 (UniProt Q6P1A2)
inactive: vemurafenib -0.178 | [1] 0.016 | barasertib 0.104 | [2] 0.104 | volasertib 0.041 | [3] 0.128 | [4] -0.081 | [5] -0.112 | saracatinib -0.035 | sotrastaurin 0.167
